Binding data for two molecules are collected here from publication PMC6805484.

These are yes or no findings as the source states them, for the method shown. Binding seen in cells or lysates may run through a third protein. A yes stands for co-enrichment or nearness to the bait. Other partners may have been found. Tags and fused reporters may be left off the sequences shown.

The experiment deals with T1, GFP-MKRN1^wt (Makorin Ring Finger Protein 1, wild type, N-terminally GFP-tagged) (human) (UniProt Q9UHC7).
T1 sequence: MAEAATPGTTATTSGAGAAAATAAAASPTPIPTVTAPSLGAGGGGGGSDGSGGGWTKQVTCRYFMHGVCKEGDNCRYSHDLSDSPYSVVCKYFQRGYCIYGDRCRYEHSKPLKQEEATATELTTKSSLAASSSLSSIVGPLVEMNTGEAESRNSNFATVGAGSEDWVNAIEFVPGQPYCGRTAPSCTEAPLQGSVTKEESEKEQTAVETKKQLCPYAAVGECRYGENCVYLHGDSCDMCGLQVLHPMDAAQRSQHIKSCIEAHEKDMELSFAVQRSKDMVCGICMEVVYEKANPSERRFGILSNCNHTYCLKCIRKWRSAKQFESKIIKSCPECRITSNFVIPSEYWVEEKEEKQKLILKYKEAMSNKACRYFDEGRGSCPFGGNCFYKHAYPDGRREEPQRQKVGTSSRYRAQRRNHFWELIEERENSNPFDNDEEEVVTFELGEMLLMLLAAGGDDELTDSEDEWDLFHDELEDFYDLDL
Briefly: affinity purification with mass spectrometry; GFP-trap agarose beads with cleared lysates of HEK293T cells transiently expressing N-terminally GFP-tagged MKRN1 wt or mutants (medium or heavy SILAC) or GFP alone (light SILAC); mRIPA buffer, 1 h at 4 °C; three replicates, FDR < 5%.

B1: MOV10 (endogenous) (protein, UniProt Q9HCE1 1-1003)
chain: MPSKFSCRQLREAGQCFESFLVVRGLDMETDRERLRTIYNRDFKISFGTPAPGFSSMLYGMKIANLAYVTKTRVRFFRLDRWADVRFPEKRRMKLGSDISKHHKSLLAKIFYDRAEYLHGKHGVDVEVQGPHEARDGQLLIRLDLNRKEVLTLRLRNGGTQSVTLTHLFPLCRTPQFAFYNEDQELPCPLGPGECYELHVHCKTSFVGYFPATVLWELLGPGESGSEGAGTFYIARFLAAVAHSPLAAQLKPMTPFKRTRITGNPVVTNRIEEGERPDRAKGYDLELSMALGTYYPPPRLRQLLPMLLQGTSIFTAPKEIAEIKAQLETALKWRNYEVKLRLLLHLEELQMEHDIRHYDLESVPMTWDPVDQNPRLLTLEVPGVTESRPSVLRGDHLFALLSSETHQEDPITYKGFVHKVELDRVKLSFSMSLLSRFVDGLTFKVNFTFNRQPLRVQHRALELTGRWLLWPMLFPVAPRDVPLLPSDVKLKLYDRSLESNPEQLQAMRHIVTGTTRPAPYIIFGPPGTGKTVTLVEAIKQVVKHLPKAHILACAPSNSGADLLCQRLRVHLPSSIYRLLAPSRDIRMVPEDIKPCCNWDAKKGEYVFPAKKKLQEYRVLITTLITAGRLVSAQFPIDHFTHIFIDEAGHCMEPESLVAIAGLMEVKETGDPGGQLVLAGDPRQLGPVLRSPLTQKHGLGYSLLERLLTYNSLYKKGPDGYDPQFITKLLRNYRSHPTILDIPNQLYYEGELQACADVVDRERFCRWAGLPRQGFPIIFHGVMGKDEREGNSPSFFNPEEAATVTSYLKLLLAPSSKKGKARLSPRSVGVISPYRKQVEKIRYCITKLDRELRGLDDIKDLKVGSVEEFQGQERSVILISTVRSSQSFVQLDLDFNLGFLKNPKRFNVAVTRAKALLIIVGNPLLLGHDPDWKVFLEFCKENGGYTGCPFPAKLDLQQGQNLLQGLSKLSPSTSGPHSHDYLPQEREGEGGLSLQVEPEWRNEL
Take B1: the binding entry is on record as “binds”.

B2: UPF1 (endogenous) (protein, UniProt Q92900 1-1129)
chain: MSVEAYGPSSQTLTFLDTEEAELLGADTQGSEFEFTDFTLPSQTQTPPGGPGGPGGGGAGGPGGAGAGAAAGQLDAQVGPEGILQNGAVDDSVAKTSQLLAELNFEEDEEDTYYTKDLPIHACSYCGIHDPACVVYCNTSKKWFCNGRGNTSGSHIVNHLVRAKCKEVTLHKDGPLGETVLECYNCGCRNVFLLGFIPAKADSVVVLLCRQPCASQSSLKDINWDSSQWQPLIQDRCFLSWLVKIPSEQEQLRARQITAQQINKLEELWKENPSATLEDLEKPGVDEEPQHVLLRYEDAYQYQNIFGPLVKLEADYDKKLKESQTQDNITVRWDLGLNKKRIAYFTLPKTDSGNEDLVIIWLRDMRLMQGDEICLRYKGDLAPLWKGIGHVIKVPDNYGDEIAIELRSSVGAPVEVTHNFQVDFVWKSTSFDRMQSALKTFAVDETSVSGYIYHKLLGHEVEDVIIKCQLPKRFTAQGLPDLNHSQVYAVKTVLQRPLSLIQGPPGTGKTVTSATIVYHLARQGNGPVLVCAPSNIAVDQLTEKIHQTGLKVVRLCAKSREAIDSPVSFLALHNQIRNMDSMPELQKLQQLKDETGELSSADEKRYRALKRTAERELLMNADVICCTCVGAGDPRLAKMQFRSILIDESTQATEPECMVPVVLGAKQLILVGDHCQLGPVVMCKKAAKAGLSQSLFERLVVLGIRPIRLQVQYRMHPALSAFPSNIFYEGSLQNGVTAADRVKKGFDFQWPQPDKPMFFYVTQGQEEIASSGTSYLNRTEAANVEKITTKLLKAGAKPDQIGIITPYEGQRSYLVQYMQFSGSLHTKLYQEVEIASVDAFQGREKDFIILSCVRANEHQGIGFLNDPRRLNVALTRARYGVIIVGNPKALSKQPLWNHLLNYYKEQKVLVEGPLNNLRESLMQFSKPRKLVNTINPGARFMTTAMYDAREAIIPGSVYDRSSQGRPSSMYFQTHDQIGMISAGPSHVAAMNIPIPFNLVMPPMPPPGYFGQANGPAAGRGTPKGKTGRGGRQKNRFGLPGPSQTNLPNSQASQDVASQPFSQGALTQGYISMSQPSQMSQPGLSQPELSQDSYLGDEFKSQIDVALSQDSTYQGERAYQHGGVTGLSQY
Turning to B2, the binding result is “binds”.
